PubChem BioAssay AID2685 (National Center for Advancing Translational Sciences (NCATS), 2010)
The list shows a part of the results. Shown are side measurements of this screen, not its main read-out; they come without a call. The list favours compounds with an active or inconclusive main result. Words in brackets tell the shape of the fitted curve; partial curves, single points and poor fits give uncertain potencies.

Assay: qHTS Assay for Lipid Storage Modulators in Drosophila S3 Cells;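 on cell number change: cells counted by Cell Tracker Red CMTPX staining in the red channel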
Conditions: BODIPY lipid droplet fluorescence, 18-24 h; for cell number change: measured here: cell count max response, cells fed with added oleic acid
In short: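 Drosophila S3 cells loaded with oleic acid (400 uM, as added) and compounds at several concentrations; lipid droplets imaged by 488-nm laser-scanning cytometry, 500–530 nm intensity and object ratio to cell channel. Percent activity normalized to 20 uM Triacsin C.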

[1] = measured here: cell number channel AC50, cells fed with added oleic acid
[2] = measured here: lipid fluorescence (Fed channel) AC50, cells fed with added oleic acid

Structure (SMILES)	cell number change	AC50 [1]	AC50 [2]
COc1ccc(/C=N/NC(=O)c2cccc([N+](=O)[O-])c2)cc1OS(=O)(=O)c1ccccc1	-57%	29.1 µM [falling, single point]	29.1 µM [falling, single point]
Cc1onc(-c2ccccc2)c1C(=O)Nc1ccc(-c2nnc3n2CCCCC3)cc1	-8.47%		
Cc1ccc(C(=O)Nc2ccc(-c3csc(C)n3)cc2)cc1	14.6%		7.31 µM [rising, partial curve]
CN1/C(=C\C(=O)COC(=O)c2ccccc2O)C(C)(C)c2ccccc21	-37.1%	29.1 µM [falling, single point]	29.1 µM [falling, single point]
CN(CC(=O)O)S(=O)(=O)c1ccc2oc3ccccc3c2c1	-9.39%		0.58 µM [falling, single point]
CC(C)(C)C(=O)NC1CC2CCCC(C1)N2C(=O)Nc1cccc(Cl)c1 (configuration not stated)	-30.2%	0.092 µM [falling, full curve, poor fit]	
COc1ccc2c(c1)[nH]c1c(=O)n(CCCn3ccnc3)cnc12	39.3%	32.6 µM [rising, single point]	
O=C1N=C(N2CCCCC2)S/C1=C\c1cn[nH]c1-c1ccccc1	16.2%		16.4 µM [rising, partial curve]
O=C(CSc1nnc(-c2ccc(Cl)cc2)n1-c1ccc(Cl)cc1)N/N=C/c1ccccc1C(=O)O	12.2%		
CCN1CCCC1CNCc1ccc(Cl)cc1Cl (configuration not stated)			29.1 µM [falling, partial curve]
CCOC(=O)C1CCCn2c1nc1sc3c(c1c2=O)CCCC3 (configuration not stated)		5.8 µM [falling, partial curve, poor fit]	4.11 µM [falling, single point]
CC1CCC(NS(=O)(=O)c2ccc(N3CCCC3=O)cc2)CC1 (configuration not stated)	-19.4%	0.00517 µM [rising, full curve, poor fit]	
CCC(C)c1ccc(OCC(=O)Nc2ccc3[nH]c(=O)[nH]c3c2)cc1 (configuration not stated)	-8.02%		29.1 µM [rising, single point]
Cc1[nH]nc(-c2ccc(OCc3cnn(-c4ccccc4)c3)c(C)c2O)c1Oc1ccccc1	-12.6%		29.1 µM [falling, single point]
CCCCOc1ccc(C(=O)NCC(=O)NCc2ccncc2)cc1	15.3%		32.6 µM [rising, single point]
O=C(NN=C1CCCC1)c1[nH]c2ccc(Br)cc2c1-c1ccccc1	-55.2%	29.1 µM [falling, single point]	29.1 µM [falling, single point]
Cc1ccc(Nc2ccc(C(=O)N3CCCC3)cn2)c(C)c1	43.5%	16.4 µM [rising, single point]	
COc1ccc(N=C2SC(C(=O)N3CCN(c4ccc([N+](=O)[O-])cc4)CC3)CC(=O)N2C)cc1 (configuration not stated)	4.78%		
CC[C@H](C)[C@H](NC(N)=O)C(=O)NCCc1ccc(Cl)cc1	-21.5%		
C=CCNC(=O)C1CC(=O)N(c2ccc(OCC(=O)Nc3c(C)cccc3C)cc2)C1 (configuration not stated)	13.2%		
COc1cccc(C(=O)Nc2cc(OC)ccc2NC(=O)c2ccco2)c1	-0.293%		18.4 µM [falling, single point]

Structure (SMILES)	cell number change	AC50 [1]	AC50 [2]
O=C(C[n+]1ccccc1)Nc1ccccc1[N+](=O)[O-]	2.47%		8.2 µM [rising, partial curve]
Cc1cccc(C)c1NC(=O)CSc1nnnn1C	25.4%		6.51 µM [rising, single point]
O=C(O)C(Cc1ccccc1)N1Cc2ccccc2C1=O (configuration not stated)	-28.5%	3.26 µM [falling, single point]	11.6 µM [falling, partial curve]
COc1cccc(N2CCN(C(=O)c3cc4cc(Cl)ccc4[nH]3)CC2)c1	37.3%	29.1 µM [rising, single point]	
Cc1cc(C)nc(Nc2cc([N+](=O)[O-])ccc2C)n1	50.8%	20.6 µM [rising, single point]	
Cc1c(C(c2cccs2)c2c(C)n(C)n(-c3ccccc3)c2=O)c(=O)n(-c2ccccc2)n1C	-20.9%		29.1 µM [falling, single point]
Cc1cc(C)cc(Nc2ncc3c(n2)CC(c2ccco2)CC3=O)c1 (configuration not stated)	-84.9%	29.1 µM [falling, single point]	18.4 µM [rising, single point]
CCN1C(=O)[C@H]2[C@@H](c3ccc(C)cc3)N3C(=O)N(c4cccc(Cl)c4)C(=O)[C@@]3(CC)[C@H]2C1=O	-15.4%		
CCC1CCc2sc(C(=O)NNC(=O)c3ccncc3)cc2C1 (configuration not stated)	30.5%	16.4 µM [rising, single point]	
N#C/C(=C\c1ccc(-c2ccc(C(=O)O)cc2)o1)C(=O)NCC1CCCO1 (configuration not stated)	-70.6%	20.6 µM [falling, single point]	
Cn1cnc2cc(NC(=O)c3ccco3)ccc21	-11.8%		
Cc1ccc(S(=O)(=O)NC(C)(C)CSc2ccccn2)cc1	22.3%		
CC(=O)Nc1ccc(Nc2ccc([N+](=O)[O-])cn2)cc1	18.9%		3.66 µM [rising, single point]
CCN(CC)CC(=O)NCC1(c2ccccc2)CCOCC1			5.17 µM [rising, partial curve]
CCCCn1c(N)c(N(CCOC)C(=O)C2CC(=O)N(Cc3ccco3)C2)c(=O)[nH]c1=O (configuration not stated)	3.51%	7.31 µM [falling, partial curve, poor fit]	
COc1ccc(C(=O)Nc2nc3ccc(OC)cc3s2)cc1	-47.5%	13 µM [falling, partial curve, poor fit]	6.51 µM [falling, single point]
CCOC(=O)c1c(C)[nH]c(N=Nc2cccc(OC)c2)c1C	-37.2%	13 µM [falling, single point]	29.1 µM [falling, single point]
COc1cccc(CNS(=O)(=O)c2cc(Br)cc3c2N(C(C)=O)C(C)C3)c1 (configuration not stated)	87.3%	9.2 µM [rising, partial curve]	16.4 µM [rising, partial curve]
CCCSc1ccc([C@@H]2[C@@H]3C(=O)N(C)C(=O)[C@@H]3[C@]3(C(=O)OC)CCCN23)cc1OC	-16.9%		1.16 µM [falling, full curve, poor fit]
COc1ccc(NC(=O)CCC(=O)Nc2nnc(CC(C)C)s2)cc1Cl			29.1 µM [rising, single point]
O=C(Nc1ccc(Cl)c(Cl)c1)Nc1ccccn1	31%	18.4 µM [rising, single point]	

As a short view, some entries already given.
Structure (SMILES)	cell number change	AC50 [1]	AC50 [2]
Cc1ccc(S(=O)(=O)NC(C)(C)CSc2ccccn2)cc1	22.3%		
CC(=O)Nc1ccc(Nc2ccc([N+](=O)[O-])cn2)cc1	18.9%		3.66 µM [rising, single point]

(list continues)

Structure (SMILES)	cell number change	AC50 [1]	AC50 [2]
Cc1ccccc1-n1nnnc1SCC(=O)Nc1ccc(S(=O)(=O)N2CCCC2)cc1			0.116 µM [falling, full curve, poor fit]
CCOc1cc2c(C#N)c(N3CCCCC3)nc(N)c2c(N)n1	2.09%	0.461 µM [rising, full curve]	0.00517 µM [rising, full curve, poor fit]
Cc1sc2ncn(CC(=O)NCCCC(=O)N3CCC(C)CC3)c(=O)c2c1C	18.9%		
Cc1ccc(N(C(C)C(=O)N2CCC(C)CC2)S(C)(=O)=O)cc1C (configuration not stated)	-20.2%	0.82 µM [falling, full curve, poor fit]	
O=C(CCNC(=O)c1ccccc1Cl)NCC1COc2ccccc2O1 (configuration not stated)	-7.23%		
Cc1ccc(CNC(=O)CCNS(=O)(=O)c2cccc3nonc23)cc1	33.1%	13 µM [rising, single point]	
Cc1ccc2c(c1)C1CN(C)CCC1N2S(=O)(=O)c1ccc(C(C)C)cc1 (configuration not stated)	1.3%		32.6 µM [rising, single point]
Cc1cc(C)nc(NC(=O)c2ccc(Br)s2)n1	11.4%		
CCOc1ccc(N(CC(=O)NC(C)(C)C)C(=O)CCC(=O)Nc2nccs2)cc1	0.787%		
O=C(NCc1ccco1)c1cc(-c2ccc3c(c2)OCO3)on1	12.4%		2.31 µM [rising, partial curve]
COc1ccc(OC)c(C(=O)NC(CC(N)=O)c2ccc(NCC3CC3)c([N+](=O)[O-])c2)c1 (configuration not stated)	14.1%		6.51 µM [rising, partial curve]
CC1CCN(c2oc(-c3ccccc3F)nc2C#N)CC1		1.64 µM [rising, partial curve]	
O=C(NC1CCCC1)C(c1ccco1)N(Cc1ccccc1)C(=O)c1csnn1 (configuration not stated)	77.9%	29.1 µM [rising, single point]	18.4 µM [rising, single point]
CCOC(=O)c1cc(-c2ccc(/C=N\n3cnnc3)o2)ccc1Cl		0.291 µM [rising, partial curve, poor fit]	
O=C(Nc1nnc(SCc2ccc(Cl)cc2)s1)C1CCCO1 (configuration not stated)			0.116 µM [falling, full curve, poor fit]
Cc1[nH]c(=O)c(C#N)c(C)c1CCC(=O)NCc1cccc(C(F)(F)F)c1	-7.56%		0.164 µM [falling, partial curve, poor fit]
COc1ccccc1NC(=O)COc1ccc(C(=O)OCC(=O)N2CCCC2=O)cc1OC	-18.6%		0.259 µM [rising, partial curve, poor fit]
CN(Cc1ccccc1F)C(=O)CCCNC(=O)c1ccc(Cl)cc1	-41.1%		
COc1ccc(Cn2ccnc2SCC(=O)NC2CCCCC2)cc1	26.7%		2.91 µM [rising, single point]
